# Values of other authors in patent publication US20130034537A1, “SIMULTANEOUS CO-TREATMENT OF PHYSICAL AND MENTAL SYMPTOMS RELATED TO SEVERE MENTAL DISORDERS BY A SPECIALLY FERMENTED SOY FORMULATION (FSWW08)” (priority 2010, published 2013).
# At least one structure is not confirmed: it was looked up by name or label, or the drawing left a doubt.
# System: schizophrenic men
# Conditions: oral 2 mg
compound,measurement,value
C[C@]12CC[C@@H]3c4ccc(O)cc4CC[C@H]3[C@@H]1CC[C@@H]2O [estradiol],patients who failed to increase estradiol levels,27%
